Measurements reported in PubChem BioAssay AID1224828 (NIAID, 2016).
The whole screen tested about 17,000 reagents; below is a random part of them. In the full data, 762 (4.5%) are marked active. 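Active calls include both raised and lowered p65 entry, mostly lowered; wells with fewer than 50 cells lack a z-score.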 Raw values vary from plate to plate and are shown uncorrected. Reagent sequences are not shown.

- Screen: 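Knock-downs that increase or decrease LPS-induced p65 nuclear translocation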 (primary screen)
- Cell system: mouse RAW264.7 G9 macrophage reporter cells (GFP-p65, Tnf promoter-mCherry)
- Knock-down reagent: siRNA pool against mouse genes, 100 nM
- Duration: 2 days siRNA transfection, then 40 min LPS before fixation
- Challenge: LPS (Salmonella minnesota R595) at 10 ng/ml
- Measurement: 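Microscopy ratio of nuclear to perinuclear-ring GFP-p65 signal, scaled to the plate median; gene score is the average of two replicate robust z-scores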
- Scale: p65 translocation robust z-score: higher = more nuclear NF-kappaB p65 after LPS than the plate median; nuclear/cytoplasmic p65 ratio: higher = more nuclear NF-kappaB p65
- Active means: 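Active if robust z is above 3.3 (negative regulators) or below -1.56, the Tlr4 control median (positive regulators); activity score 50 or more; control wells not called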
- Meaning of the calls: active = hit (p65 shift raised or lowered); inactive = no clear change

| target | p65 translocation robust z-score | nuclear/cytoplasmic p65 ratio, rep 1 | nuclear/cytoplasmic p65 ratio, rep 2 | low cell count flag | outcome |
| --- | --- | --- | --- | --- | --- |
| Wbp4 | – | 1.69 | 1.38 | fewer than 50 cells per well; well left out of scoring | inactive |
| Ccni | -1.03 | 1.24 | 1.33 | enough cells to score | inactive |
| Mmd | 1.4 | 2.06 | 1.76 | enough cells to score | inactive |
| Plscr2 | – | 1.7 | 1.28 | fewer than 50 cells per well; well left out of scoring | inactive |
| Pbld2 | – | 1.24 | 1.25 | fewer than 50 cells per well; well left out of scoring | inactive |
| Erlec1 | – | 1.29 | 1.23 | fewer than 50 cells per well; well left out of scoring | inactive |
| Abcg5 | -0.01 | 1.6 | 1.63 | enough cells to score | inactive |
| Irgq | 0.19 | 1.55 | 1.8 | enough cells to score | inactive |
| Nt5dc1 | 1.23 | 1.44 | 1.63 | enough cells to score | inactive |
| Ndufa9 | -0.75 | 1.73 | 1.42 | enough cells to score | inactive |
| Fam168a | -0.14 | 1.44 | 1.95 | enough cells to score | inactive |
| Polr3d | -0.07 | 1.43 | 1.45 | enough cells to score | inactive |
| Sult1c1 | 0.64 | 1.53 | 1.3 | enough cells to score | inactive |
| Tmem70 | 0.53 | 1.66 | 1.48 | enough cells to score | inactive |
| Pcbp2 | -0.38 | 1.41 | 1.35 | enough cells to score | inactive |
| Gda | -0.15 | 1.6 | 1.42 | enough cells to score | inactive |
| Abraxas2 | 0.59 | 1.56 | 1.56 | enough cells to score | inactive |
| Bak1 | -0.28 | 1.57 | 1.58 | enough cells to score | inactive |
| Ndufaf7 | -0.44 | 1.38 | 1.37 | enough cells to score | inactive |
| Fev | -2.01 | 1.28 | 1.21 | enough cells to score | active |
| Ube2h | -0.07 | 1.5 | 1.5 | enough cells to score | inactive |
| 9630013D21Rik | – | 1.58 | 1.52 | fewer than 50 cells per well; well left out of scoring | inactive |
| Etfrf1 | -0.18 | 1.27 | 1.25 | enough cells to score | inactive |
| Ywhaq | -0.55 | 1.44 | 1.42 | enough cells to score | inactive |
| Rab1a | 0.61 | 1.58 | 1.62 | enough cells to score | inactive |
| Mvd | -1.48 | 1.47 | 1.19 | enough cells to score | inactive |
| Gm5082 | 1.74 | 1.64 | 1.73 | enough cells to score | inactive |
| Hspa2 | – | 1.34 | 1.3 | fewer than 50 cells per well; well left out of scoring | inactive |
| Birc6 | -0.08 | 1.66 | 1.55 | enough cells to score | inactive |
| Ppp2r5e | -1.38 | 1.32 | 1.22 | enough cells to score | inactive |
| Or8b56 | 3.6 | 2.08 | 1.52 | enough cells to score | active |
| Eif3f | -0.49 | 1.45 | 1.26 | enough cells to score | inactive |
| Rhot1 | – | 1.66 | 1.18 | fewer than 50 cells per well; well left out of scoring | inactive |
| Gcc1 | -1.02 | 1.5 | 1.27 | enough cells to score | inactive |
| Prdm1 | 1.05 | 1.55 | 1.63 | enough cells to score | inactive |
| 9130019P16Rik | 0.04 | 1.37 | 1.54 | enough cells to score | inactive |
| Ankfn1 | – | 0.97 | 1.21 | fewer than 50 cells per well; well left out of scoring | inactive |
| 9630028B13Rik | – | 1.3 | 1.54 | fewer than 50 cells per well; well left out of scoring | inactive |
| Fam180a | – | 1.18 | 1.25 | fewer than 50 cells per well; well left out of scoring | inactive |
| Csgalnact1 | – | 1.19 | 0.969 | fewer than 50 cells per well; well left out of scoring | inactive |
| Rimoc1 | 0.08 | 1.5 | 1.64 | enough cells to score | inactive |
| Anapc1 | 0.77 | 1.67 | 1.8 | enough cells to score | inactive |
| Drc3 | – | 1.2 | 0 | fewer than 50 cells per well; well left out of scoring | inactive |
| Naaa | -0.06 | 1.61 | 1.48 | enough cells to score | inactive |
| Rassf1 | -0.94 | 1.4 | 1.36 | enough cells to score | inactive |
| Rora | -2.5 | 1.15 | 1.18 | enough cells to score | active |
| Prr14l | – | 1.38 | 1.49 | fewer than 50 cells per well; well left out of scoring | inactive |
| Or10h28 | 0.85 | 1.56 | 1.32 | enough cells to score | inactive |
| Brap | 0.53 | 1.71 | 1.68 | enough cells to score | inactive |
| Gfod2 | – | 1.43 | 1.07 | fewer than 50 cells per well; well left out of scoring | inactive |
| Syne4 | -0.93 | 1.41 | 1.6 | enough cells to score | inactive |
| Vmn1r14 | 0.23 | 1.47 | 1.21 | enough cells to score | inactive |
| Ccnc | – | 1.67 | 1.47 | fewer than 50 cells per well; well left out of scoring | inactive |
| Scd4 | 0.37 | 1.4 | 1.31 | enough cells to score | inactive |
| Abhd6 | 1.07 | 1.9 | 1.65 | enough cells to score | inactive |
| Cdk18 | – | 1.63 | 1.33 | fewer than 50 cells per well; well left out of scoring | inactive |
| Mup4 | 0.51 | 1.88 | 1.65 | enough cells to score | inactive |
| Hnrnpu | 0.03 | 1.42 | 1.56 | enough cells to score | inactive |
| Slc22a22 | -0.25 | 1.61 | 1.73 | enough cells to score | inactive |
| Arhgap25 | 0.65 | 1.68 | 1.62 | enough cells to score | inactive |
| Or4c115 | 2.17 | 2.01 | 1.87 | enough cells to score | inactive |
| Dio1 | 3.31 | 1.63 | 1.78 | enough cells to score | active |
| Tsnax | – | 1.35 | 1.24 | fewer than 50 cells per well; well left out of scoring | inactive |
| Gpx1 | 0.97 | 1.54 | 1.52 | enough cells to score | inactive |
| Kcnh3 | 0.55 | 1.54 | 1.46 | enough cells to score | inactive |
| BC061237 | – | 1.23 | 1.04 | fewer than 50 cells per well; well left out of scoring | inactive |
| Trp53rkb | -0.77 | 1.47 | 1.29 | enough cells to score | inactive |
| Tom1l2 | -0.71 | 1.28 | 1.44 | enough cells to score | inactive |
| Aard | – | 1.4 | 1.58 | fewer than 50 cells per well; well left out of scoring | inactive |
| Acss3 | – | 1.58 | 1.77 | fewer than 50 cells per well; well left out of scoring | inactive |
| Or9a7 | 0.63 | 1.52 | 1.35 | enough cells to score | inactive |
| Kcnc3 | 0.14 | 1.56 | 1.34 | enough cells to score | inactive |
| Cldn6 | -1.9 | 1.32 | 1.46 | enough cells to score | active |
| Mettl21e | – | 1.12 | 1.24 | fewer than 50 cells per well; well left out of scoring | inactive |
| Pfdn6 | 1.52 | 1.77 | 1.85 | enough cells to score | inactive |
